These results are taken from PubChem BioAssay AID1347423 (Functional Genomics Laboratory (NCATS/FGL), 2020).

In all, about 52,000 sequences went through this assay and about 210 (0.4%) were called active.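 How the source made its calls: active means gene whose silencing raises cell survival under the drug, median off-target-corrected z-score across its silencing RNAs 2 or more; inactive means the rest.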 This is one part of the list.

The nature of this experiment: Resistance to Poly (ADP-Ribose) Polymerase inhibitor: Gene Identification via Genome-wide siRNA Screen. Conditions: mouse BRCA2 R2336H ES cells, olaparib, CellTiter-Glo viability; active compounds read high. The procedure, abridged:
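Mouse BRCA2 R2336H ES cells were reverse-transfected with siRNA (20 nM final), treated at 48 h with 500 nM olaparib, and read by CellTiter-Glo after 72 h. Scores: MAD-based z per siRNA, median per gene, seed off-target correction.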
A general note: Cellular ATP, detected with luciferase, serves as a proxy for viable cell number.
As for GGAAACCUGAUAGAAGAGCTT against Dctn6, the z-score is inactive: 0.255. In the case of GCUGAGAAGUGGUAUCUAATT against Lztfl1, the z-score is inactive: -0.124.

As for GGUGGUUCUGGUGUACAGUTT against Nxf1, the z-score is inactive: -2.28. Under GCAAGCAUGCUCAUAAAGATT against Cast stands inactive: 0.0438; under “CCAAGUAAUGGCUGAUCGCTT against B230382K22Rik”, inactive: 0.354; under GGAACUAUGGAGAUGGGACTT against Tcf4, inactive: 0.15. Consider GGCCAGCAGAUGAAUACGATT against Shd, for which the z-score was inactive: 0.321. In the case of CCGUCUUAAUUCUCACCUUTT against C78212, the z-score is inactive: -2.12.

Turning to GGCCUUAGAGAAAAUCUUUTT against Brd3, the z-score is inactive: -0.0766. Under GGAAUGAGGAACCUUCUUCTT against Oprm1 stands inactive: 1.45; under GGUUGGAUCAAGUUUAAAUTT against Tmsb4x, inactive: -0.706. Under GCCUUUCUCGCUACUUAGUTT against Cltc stands inactive: -2.83. Under GGCUAGUUUUCUCUUAAAUTT against Usp1 stands inactive: -0.283; under “GGCAUGCUCAGGUCGUGUUTT against 1110008J03Rik”, inactive: 0.207. “CCCAUGGCUACUUUGAAUCTT against 1190006E07Rik”: the z-score is inactive: 0.91. Under ACAGGUACACUUCUUUGUGTT against LOC433886 stands inactive: -0.808; under GGAGCAUUAUCAACCACUATT against Olfr908, inactive: -0.473. Under GCGAGAAACAUCAAUGGAUTT against Psip1 stands inactive: -0.948; under CCACGAAAGGUGGAGAGGUTT against Tmc2, inactive: -0.879; under GGAAGAUGAACUUCGUACCTT against Slc4a2, inactive: -0.581. Turning to “GCCCUUUCCUCAAAAAAAATT against 1700034E13Rik”, the z-score is inactive: 0.937.

For GGUUGUCGUCAACAAGAGCTT against AI507495, the z-score was inactive: 0.289. Under GGCCGUUGGAAACACGAUCTT against Exosc6 stands inactive: -0.713; under GGUAAACUGAGGCAACGACTT against Ddah2, inactive: 0.832; under “GGGAUUAGCACUUUUUCUUTT against 2700081O15Rik”, inactive: 0.649.

Consider CCUUGAAAUUUGUUCAUACTT against Pgm2l1, for which the z-score was inactive: -0.945. Under GGCUCAUCAAAGGAAGAAATT against Araf1 stands active: 1.44; under “GCUAUACAAAGGCUACUCUTT against 1700064K09Rik”, inactive: -3.09; under GCGACAUCUUACUUGAAAGTT against Fbxl3a, inactive: -0.456.

Take GGACUUUACUACGUAGAUGTT against Psmb8: the z-score was inactive: 0.147. As for “GGAAGAACUUUUGGUUAUUTT against A230079K17Rik”, the z-score was inactive: -0.934. Take “GGACUUAUGUGACUUAUGUTT against 1600029D21Rik”: the z-score is inactive: -0.105. Under “GCAUUGUGGAGGAUGUACATT against C230029F24Rik” stands inactive: -1.18; under CCGAAUAAAGAUUCAUUCATT against Adfp, inactive: 0.0229; under GAUGCGGCUCCUUGGAAUUTT against Ostb, inactive: 1.6. Under “GGUUUUGCAUUUCGGAGAATT against D10Ertd718e” stands inactive: -0.722; under GGCAAUCUAUGAGAAAUUCTT against Rgs18, inactive: 1.13; under GCCUUUUUUGGAAAAUACCTT against Sulf1, inactive: -0.455. Under “GGAUUUUUUUUCUUGUUGCTT against 9930021J17Rik” stands inactive: 0.982; under CGAACCUGACUUUCACAGCTT against Il10rb, inactive: 1.05; under CCAUUGAACAGCAGAUUGGTT against Atp7a, inactive: 0.192. As to “GCUUGAGAAGACCACCAAATT against 4931420D14Rik”, the z-score was inactive: -1.26. GGGUUUUCCACGAUGGUUGTT against N28178: the z-score was inactive: 1.01. Under CCAUUGAGUCUUUCAUUACTT against Ube2g1 stands inactive: 0.259.

As for GGCGGUGAUCCAGGGUUUATT against Klc2, the z-score is inactive: -0.0337. Under GGGCCAAGAUUAUAAGUAATT against Pld3 stands inactive: -1.11. Under “GGAGGUCCUUAUCGCUUGGTT against 4932416F07Rik” stands inactive: 0.151; under GGAUGGAAAGAAAAUCCUGTT against Pign, inactive: 0.354. As for GGGACUCGAGUUUCAUCUATT against Casc1, the z-score is inactive: 2.59. Consider GCUCUCACCUCCCUAUUGATT against Sult2b1, for which the z-score was inactive: 0.0224. As for CGAGAAAAUGGAGCUCUAATT against Csf3, the z-score is inactive: -0.738.

For the sequence GGUGGUAGCUCCAGUAUCUTT against Sdcbp2, the z-score is inactive: -1.33.

GGAACGGAACAUAAACCAGTT against Evpl: the z-score was inactive: -1.85. Under GCCACAUUUUACAAUUUAGTT against Laptm4b stands inactive: 0.607; under GCUCUCGUGAGAGUUGCCATT against BC050196, inactive: 0.098. Under GGCAUUACUGGGUACCUACTT against Pte1 stands inactive: -1.34; under GCCGUAGGUUAGAGAAUCGTT against Txnl6, inactive: 1.32. As for GGAAGUAACAGAGAAGGAATT against Pip3ap, the z-score was inactive: 0.609.

Consider CCCAGAGGACAUUUAAGCUTT against Glb1, for which the z-score is inactive: 0.112. Regarding GAGUUAAAGGUAAAAAUGGTT against Klra3, the z-score is inactive: -0.337. Under “CCUAAUCCUGAUAAUUCCATT against 9130404D14Rik” stands inactive: -1.31; under GGGAUGGAAACCCUGGAUCTT against Col3a1, inactive: -1.38; under CCUCUUAACAUCUCAAUACTT against Dio2, inactive: -0.083.

Take GGAAUCUGAUCUUAACAUCTT against Odz1: the z-score is inactive: -0.231. Under GGCCUUUUUGUUUAUGCUATT against Zan stands inactive: -0.085; under “CGUGGAGUAAGGAGAAUAUTT against 5930412E23Rik”, inactive: -2.7.
